Results: PMC10419174, “WR1065 conjugated to thiol-PEG polymers as novel anticancer prodrugs: broad spectrum efficacy, synergism, and drug resistance reversal” (Frontiers in Oncology, 2023)
Like-named read-outs stand apart in the source and are kept apart here.

Tested on: Strain-2 and Strain-3 NHMECs
Assay type: cell-based
From the text: Normal human mammary epithelial cell (NHMEC) strains used to assess potential cytotoxicity of 4SP65 and 1LP65 were established from reduction mammoplasty tissue from a healthy donor (M99005 or ‘Strain-1’) ([53]) or purchased from ATCC (Manassas, VA, USA; batch#70043304 or ‘Strain-2’) or Cell Applications (San Diego, CA, USA; lot#1669 or ‘Strain-3’). Human cancer cell lines including HCC38, MDA-MB-231, A549, National Cancer Institute (NCI)-H460, NCI-H1437, NCI-H1975, DU145, LNCaP, PC3, PANC1, SKOV3, and HL60, which were free of Mycoplasma, were purchased from ATCC. HMESO1, PPMMill, and TOV21G cells, obtained from Dr. Brian Cunniff, were verified to be Mycoplasma negative using the LookOut® Mycoplasma PCR Detection Kit (Sigma-Aldrich) and to match previously annotated DNA fingerprints by the Vermont Integrative Genomics Resource DNA Analysis Facility.
To assess the effects of 4SP65 or 1LP65 on the growth of normal epithelium, experiments were performed using NHMEC strains from differing donors ([53]). Strain-1 NHMECs were plated at 5,000 cells/well in 24-well plates and allowed to reach 50% confluence before treatment with 0-150 µM 4SP65 for 48 h. Cell viability was determined using a hemocytometer and trypan blue exclusion assay. Two other NHMEC strains, exposed to 0-150 µM 4SP65 or 0-500 µM 1LP65 for 48 h, were handled in the same fashion except that viability of cells in 96-well plates was determined using CyQUANT dye. Due to the short life span of these NHMECs, standard curves were not generated and fluorescence readings were used as a surrogate marker of cell number ([54]).

| Compound | average effect per unit dose (% growth ÷ exposure concentration) (9 µM drug) | average effect per unit dose (% growth ÷ exposure concentration) (30 µM drug) | average effect per unit dose (% growth ÷ exposure concentration) (90 µM drug) | average effect per unit dose (% growth ÷ exposure concentration) (150 µM drug) | average effect per unit dose (% growth ÷ exposure concentration) (300 µM drug) | average effect per unit dose (% growth ÷ exposure concentration) (500 µM drug) |
| --- | --- | --- | --- | --- | --- | --- |
| 4-star-PEG-S-S-WR1065 [4SP65] | 8.7 | 1.70 | 0.23 | 0.058 | – | – |
| COCCOCCOCCOCCOCCOCCSSCCNCCCN.O=C(O)C(F)(F)F.O=C(O)C(F)(F)F [1LP65, m-PEG6-S-S-WR1065] | – | – | 2.9 | 0.31 | 0.06 | 0.03 |
